In PubChem BioAssay AID2685 (National Center for Advancing Translational Sciences (NCATS), 2010):
The other results are listed elsewhere or left out. Shown are side measurements of this screen, not its main read-out; they come without a call. The list favours compounds with an active or inconclusive main result. Potencies come from curve fits of mixed quality, noted in brackets.

Assay: qHTS Assay for Lipid Storage Modulators in Drosophila S3 Cells;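 for cell number change: cells counted by Cell Tracker Red CMTPX staining in the red channel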
Details: BODIPY lipid droplet fluorescence, 18-24 h; for cell number change: measured here: cell count max response, cells fed with added oleic acid
Outline: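 Laser-scanning cytometry quantifies lipid droplet accumulation (500–530 nm total intensity; droplet/cell object ratio) in oleic acid-fed (400 uM added) Drosophila S3 cells treated with a concentration series. 20 uM Triacsin C defined 100% inhibition.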

[1] = measured here: cell number channel AC50, cells fed with added oleic acid
[2] = measured here: lipid fluorescence (Fed channel) AC50, cells fed with added oleic acid

SMILES | AC50 [1] | AC50 [2] | cell number change
O=C(CCS(=O)(=O)c1cccs1)Nc1ccc(C(=O)NCc2ccccc2)cc1 | 1.84 µM [rising, partial curve] | – | –
O=C(N/N=C/c1ccccn1)c1cc(-c2ccccc2Cl)n[nH]1 | – | 23.1 µM [falling, partial curve] | –
CCCCCCOc1ccc(C(CC(N)=O)C(=O)O)cc1 (stereo unspecified) | – | – | -19.2%
CC(C)(C)c1ccc(OCc2ccc(C(=O)Nc3cccnc3)o2)cc1 | – | – | -22.2%
Cc1nc(S(=O)(=O)N(C)c2ccccc2)c(C#N)c(C)c1Cl | – | 16.4 µM [falling, partial curve] | -15.2%
N#C/C(=C\c1cccc(Oc2ccccc2)c1)C(=O)N1CCOCC1 | 0.82 µM [falling, partial curve, poor fit] | – | -33.8%
O=c1c(Sc2ccccc2)c(C(F)(F)F)[nH]n1-c1ccccc1 | – | – | -5.22%
COc1cccc(C(=O)Nc2ccc3nc(N4CCN(c5ncccn5)CC4)cc(C)c3c2)c1OC | 29.1 µM [rising, single point] | 29.1 µM [rising, single point] | 38.6%
COc1ccc(CN(C)C(=O)C2CSC3(C)CCC(=O)N23)cc1OC (stereo unspecified) | 29.1 µM [falling, single point] | 18.4 µM [falling, single point] | -32.8%
CCOc1ccc(C(=O)NC(=S)Nc2ccccn2)cc1[N+](=O)[O-] | – | 0.231 µM [rising, full curve, poor fit] | –
O=C(CCCn1c(=O)[nH]c2ccccc2c1=O)N1CCN(c2ccccn2)CC1 | – | 6.51 µM [rising, single point] | 15.8%
Cc1nc(N)nc2c1CCCC2 | – | 25.9 µM [falling, partial curve] | 9.69%
CC1CC(C)CN(C(=O)CN2C(=O)NC(C)(C)C2=O)C1 (stereo unspecified) | 29.1 µM [rising, single point] | 10.3 µM [rising, partial curve] | 100%
Cc1cc2ncc(C(=O)Nc3ccccc3)c(C)n2n1 | 8.2 µM [falling, partial curve, poor fit] | 18.4 µM [falling, partial curve] | -61%
CCC1CCCCN1Cc1cc(OC)c(O)c([N+](=O)[O-])c1 (stereo unspecified) | 11.6 µM [falling, partial curve] | – | -88.3%
O=C(Nc1nnc(SCC(=O)N2CCCCC2)s1)c1ccc(F)cc1F | – | 0.461 µM [rising, single point] | 1.28%
CCOc1ccc(/C=C/C(=O)c2cc(Br)ccc(=O)c2O)cc1 | 20.6 µM [falling, single point] | – | -51.8%
Cc1ccc(NC(=O)c2cc3c(s2)CCC3)cc1S(=O)(=O)N1CCOCC1 | – | 3.66 µM [rising, partial curve] | 10.9%
NC(=O)COC(=O)c1ccccc1OCc1ccccc1Cl | – | 0.58 µM [rising, full curve, poor fit] | 63.1%
COc1ccc(S(=O)(=O)N2CCCCCC2)cc1C(=O)NCc1ccccc1Cl | 29.1 µM [rising, single point] | – | 68.4%

SMILES | AC50 [1] | AC50 [2] | cell number change
Cc1cc(C)cc(N(C(=O)c2csnn2)C(C(=O)NC2CCCCC2)c2ccccn2)c1 (stereo unspecified) | – | – | 23.1%
COc1ccc(C2C(C(=O)N3CCN(C)CC3)c3cc(OC)c(OC)cc3C(=O)N2C)cc1 (stereo unspecified) | – | 2.31 µM [falling, single point] | –
Cc1ccc(NS(=O)(=O)c2ccc(NC(=O)C3CC3)cc2)cc1C | 32.6 µM [falling, partial curve] | – | -51.7%
O=[N+]([O-])c1ccccc1/C=C/C=N/n1c(-c2cc(-c3ccccc3)n[nH]2)n[nH]c1=S | 16.4 µM [falling, partial curve] | 20.6 µM [falling, partial curve, poor fit] | -64.2%
COC(=O)c1ccccc1NC(=O)Cn1nc2n(C)c3ccccc3n2c(=O)c1=O | – | 0.651 µM [rising, single point] | 12.6%
Cc1ccc(Nc2cc(C)nc(N3CCOCC3)n2)c(C)c1 | – | 2.06 µM [rising, full curve] | -3.43%
CN(CCC#N)C(=O)COC(=O)c1ccc(Cl)cc1O | 1.03 µM [falling, full curve] | – | -41.7%
O=S(=O)(Nc1cccc(-c2ccc(N3CCOCC3)nn2)c1)c1cc(Cl)ccc1Cl | 9.2 µM [rising, partial curve, poor fit] | 0.411 µM [rising, full curve, poor fit] | 33%
COC(=O)N/N=C/c1cc(OC)c(O)c([N+](=O)[O-])c1 | 4.61 µM [falling, full curve] | 0.259 µM [falling, full curve] | -41.4%
CCn1cc(C(=O)N2CC(C)CC(C)C2)c(=O)c2cc(S(=O)(=O)N3CCCC3)ccc21 (stereo unspecified) | – | – | 1.83%
CCOC(=O)C1CCN(C(=O)CC2(CC(=O)O)CCCC2)CC1 | – | 29.1 µM [rising, single point] | 6.41%
O=C(NCCc1ccc(F)cc1)N[C@@H](Cc1ccccc1)C(=O)O | – | – | -4.96%
CCC(=O)Nc1ccccc1C(=O)N1CCOCC1 | – | 0.517 µM [falling, full curve, poor fit] | 1.62%
N#Cc1c(N)nc2c(c1N)CC(COc1ccccc1)O2 (stereo unspecified) | – | – | -23.2%
O=C1CC(c2cccs2)CC2=C1C(c1ccccc1)n1ncnc1N2 (stereo unspecified) | – | 6.51 µM [falling, single point] | 3.99%
COc1ccc(NC(=O)CSc2nnc(-c3ccccc3)n2Cc2ccco2)cc1OC | – | – | -4.83%
COc1ccc(C)cc1NS(=O)(=O)c1ccc(-c2cnc(C3CC3)o2)cc1 | 4.11 µM [falling, full curve, poor fit] | – | -35.4%
COc1ccc(-c2cc(C3CCN(c4ccc(C(C)=O)cc4[N+](=O)[O-])CC3)[nH]n2)cc1 | – | 16.4 µM [falling, single point] | -23.6%
O=C(c1cc(-c2ccccc2Cl)nc2ccccc12)N1CCN(c2ccccc2O)CC1 | 18.4 µM [rising, single point] | – | 55.8%
Cc1cc(S(=O)(=O)NCc2ccc3c(c2)OCO3)ccc1F | – | – | 10.5%

Two entries from above in a different format.
SMILES	AC50 [1]	AC50 [2]	cell number change
Cc1cc2ncc(C(=O)Nc3ccccc3)c(C)n2n1	8.2 µM [falling, partial curve, poor fit]	18.4 µM [falling, partial curve]	-61%
CCC1CCCCN1Cc1cc(OC)c(O)c([N+](=O)[O-])c1 (stereo unspecified)	11.6 µM [falling, partial curve]	–	-88.3%

Later entries.

SMILES | AC50 [1] | AC50 [2] | cell number change
CNC(=S)N/N=C(\C)c1ccc(C)c(C)c1 | – | 0.92 µM [falling, partial curve, poor fit] | -1.88%
O=C(N1CCOCC1)N1CCN(S(=O)(=O)c2ccccc2)C1 | – | 1.3 µM [falling, full curve, poor fit] | -7%
CCOc1cc(N2CCOCC2)c(OCC)cc1NC(=O)COC(=O)c1cccc2ccccc12 | 0.82 µM [falling, single point] | 1.16 µM [falling, single point] | 8.76%
COc1cc(OC)cc(C(=O)NCC(=O)N2CCN(c3ccc(O)cc3)CC2)c1 | 6.51 µM [rising, full curve, poor fit] | – | 30.2%
CCOC(=O)Nc1ccc2nc3n(c(=O)c2c1)CCCCC3 | 29.1 µM [falling, single point] | 29.1 µM [falling, single point] | -109%
CN1/C(=C\C(=O)COC(=O)CNC(=O)c2ccc3ccccc3c2)C(C)(C)c2ccccc21 | – | 23.1 µM [falling, single point] | 2.99%
Cc1nc([N+](=O)[O-])c(Sc2nc3ccccc3n2C)n1Cc1ccccc1 | – | 0.206 µM [falling, full curve, poor fit] | -10.4%
Cc1cc(S(=O)(=O)N2CCCc3ccccc32)ccc1-n1cnnn1 | 0.082 µM [rising, partial curve, poor fit] | – | 10.5%
O=C(COC(=O)c1ccc(O)cc1)Nc1ccc(N2CCCCC2)cc1 | – | 0.411 µM [rising, full curve, poor fit] | -1.54%
Cc1c(NC(=O)C(C)OC(=O)COc2ccc(C#N)cc2)c(=O)n(-c2ccccc2)n1C (stereo unspecified) | – | 4.11 µM [falling, full curve, poor fit] | -2.89%
O=C(Cn1nnc(-c2ccccc2)n1)NNC(=O)c1ccc(Br)cc1 | 29.1 µM [falling, single point] | 25.9 µM [falling, single point] | -72.5%
COc1ccc(OCCSCc2nnc(NC(=O)Nc3ccc(Cl)cc3)s2)cc1 | 4.11 µM [rising, full curve, poor fit] | 6.51 µM [rising, partial curve, poor fit] | 63.8%
C/C(=N/NC(=O)CCCOc1ccc(Cl)cc1Cl)c1ccc(C)o1 | 0.0731 µM [falling, full curve, poor fit] | – | -33.3%
O=C(CSc1nc(C2CC2)nc2ccccc12)Nc1ccccc1Cl | – | 5.8 µM [rising, partial curve] | -10.3%
COc1ccccc1CCNC(=O)C(=O)NCC1OCCN1S(=O)(=O)c1ccc(F)cc1 (stereo unspecified) | 0.58 µM [falling, single point] | 20.6 µM [rising, single point] | -8.66%
COc1ccc(CC2SC(N)=NC2=O)cc1 (stereo unspecified) | 25.9 µM [rising, partial curve, poor fit] | – | 32.8%
CC1(c2ccccc2)NC(=O)N(CC(=O)NCc2ccc3c(c2)OCO3)C1=O (stereo unspecified) | – | 1.3 µM [rising, full curve] | 27.1%
O=C(NCCCO)c1nnc(Cc2c(F)cccc2Cl)o1 | 20.6 µM [falling, single point] | 29.1 µM [falling, single point] | -46.5%

Some values from the entries so far.
`CC1(c2ccccc2)NC(=O)N(CC(=O)NCc2ccc3c(c2)OCO3)C1=O` (stereo unspecified) – cell number change: 27.1%
`CNC(=S)N/N=C(\C)c1ccc(C)c(C)c1` – AC50 [2]: 0.92 µM [falling, partial curve, poor fit]
`COc1ccc(OCCSCc2nnc(NC(=O)Nc3ccc(Cl)cc3)s2)cc1` – cell number change: 63.8%
